Test results taken from the supplement of paper PMC6078165.
± gives the standard deviation of the averaged measurements. Values are relative to the signal before dosing, not to a vehicle control; the signal also falls without drug.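 Fibroblast labels name human fibroblasts: mostly primary ones from tissues such as uterus (C12385, HUF), lung (H6013), bone (Hs27A), adrenal (HADF) and skin (WS1), plus mammary HMF and breast cancer-associated Hs343T. The cancer cells are basal-like or mesenchymal-like triple-negative breast cancer lines. The paper calls a changed response a hit when it shifts by more than 3x the replicate standard deviation. The tissue of the other fibroblasts is not given here.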

System: Hs578T
Assay: relative JC-1 red fluorescence (viability) vs pre-drug, coculture with fibroblast (fraction); higher = more viable cancer cells
Protocol: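 JC-1 labelled TNBC cells cocultured 1:1 (1,500 cells each) with CellTrace Violet stained primary or stromal fibroblasts in 384-well plates in FluoroBrite medium, treated with one of 42 anticancer drugs at 0.1, 1, 10 or 100 uM. JC-1 red fluorescence (mitochondrial integrity in cancer cells only) was read by plate reader every 8 h for 72 h. Values are normalised to each well's pre-drug value. The stock of one drug was tenfold lower, so its dose labels may be too high.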

CCC1=C[C@@H]2CN(C1)Cc1c([nH]c3ccccc13)[C@@](C(=O)OC)(c1cc3c(cc1OC)N(C)[C@H]1[C@@](O)(C(=O)OC)[C@H](OC(C)=O)[C@]4(CC)C=CCN5CC[C@]31[C@@H]54)C2 [Vinorelbine]
relative JC-1 red fluorescence
Conditions | 8 h | 16 h | 24 h | 32 h | 40 h | 48 h | 56 h | 64 h | 72 h
10 µM | 0.975 ± 0.011 | 0.91581 ± 8.8e-05 | 0.8649 ± 0.0023 | 0.7784 ± 0.0018 | 0.6787 ± 0.0058 | 0.637 ± 0.011 | 0.62 ± 0.013 | 0.582 ± 0.032 | 0.571 ± 0.05
100 µM | 0.8213 ± 0.008 | 0.51 ± 0.019 | 0.427 ± 0.0048 | 0.3901 ± 0.0022 | 0.3372 ± 0.0012 | 0.295 ± 0.0049 | 0.2658 ± 0.00089 | 0.224 ± 0.0029 | 0.201 ± 0.0033

relative JC-1 red fluorescence
Conditions | 8 h | 16 h | 24 h | 32 h | 40 h | 48 h | 56 h | 64 h | 72 h
10 µM, coculture fibroblast: C12385 | 0.8213 ± 0.0046 | 0.76 ± 0.026 | 0.667 ± 0.013 | 0.619 ± 0.012 | 0.525 ± 0.015 | 0.485 ± 0.021 | 0.441 ± 0.039 | 0.401 ± 0.046 | 0.386 ± 0.055
10 µM, coculture fibroblast: H6013 | 0.8736 ± 0.0006 | 0.8569 ± 0.0075 | 0.812 ± 0.017 | 0.769 ± 0.021 | 0.709 ± 0.027 | 0.669 ± 0.037 | 0.625 ± 0.054 | 0.607 ± 0.046 | 0.563 ± 0.03
10 µM, coculture fibroblast: H6019 | 0.814 ± 0.027 | 0.796 ± 0.032 | 0.771 ± 0.025 | 0.707 ± 0.018 | 0.648 ± 0.031 | 0.616 ± 0.018 | 0.576 ± 0.029 | 0.539 ± 0.021 | 0.518 ± 0.027
10 µM, coculture fibroblast: H6076 | 0.866 ± 0.17 | 0.948 ± 0.036 | 0.942 ± 0.037 | 0.865 ± 0.052 | 0.723 ± 0.068 | 0.694 ± 0.057 | 0.629 ± 0.048 | 0.603 ± 0.058 | 0.557 ± 0.061
10 µM, coculture fibroblast: H6231 | 0.967 ± 0.029 | 0.906 ± 0.01 | 0.894 ± 0.059 | 0.804 ± 0.059 | 0.715 ± 0.039 | 0.682 ± 0.037 | 0.631 ± 0.04 | 0.597 ± 0.028 | 0.563 ± 0.033
10 µM, coculture fibroblast: HADF | 0.916 ± 0.038 | 0.876 ± 0.062 | 0.801 ± 0.059 | 0.736 ± 0.035 | 0.667 ± 0.038 | 0.637 ± 0.036 | 0.583 ± 0.037 | 0.554 ± 0.045 | 0.502 ± 0.057
10 µM, coculture fibroblast: HCFa | 0.9198 ± 0.0022 | 0.925 ± 0.014 | 0.914 ± 0.016 | 0.861 ± 0.055 | 0.8 ± 0.066 | 0.775 ± 0.081 | 0.73 ± 0.09 | 0.694 ± 0.099 | 0.65 ± 0.1
10 µM, coculture fibroblast: HCPF | 0.905 ± 0.11 | 0.986 ± 0.017 | 0.938 ± 0.034 | 0.868 ± 0.038 | 0.758 ± 0.018 | 0.7221 ± 0.00073 | 0.658 ± 0.021 | 0.607 ± 0.036 | 0.542 ± 0.032
10 µM, coculture fibroblast: HHSteC | 0.937 ± 0.03 | 0.917 ± 0.053 | 0.888 ± 0.067 | 0.818 ± 0.048 | 0.728 ± 0.053 | 0.67 ± 0.043 | 0.631 ± 0.014 | 0.602 ± 0.029 | 0.566 ± 0.036
10 µM, coculture fibroblast: HMF | 0.92 ± 0.056 | 0.839 ± 0.19 | 0.979 ± 0.023 | 0.908 ± 0.013 | 0.7811 ± 0.0067 | 0.718 ± 0.027 | 0.661 ± 0.038 | 0.615 ± 0.045 | 0.58 ± 0.054
10 µM, coculture fibroblast: HPFa | 0.93 ± 0.027 | 0.882 ± 0.015 | 0.827 ± 0.035 | 0.722 ± 0.074 | 0.647 ± 0.043 | 0.623 ± 0.041 | 0.583 ± 0.03 | 0.546 ± 0.037 | 0.504 ± 0.033
10 µM, coculture fibroblast: HUF | 0.8898 ± 0.0035 | 0.811 ± 0.0084 | 0.795 ± 0.028 | 0.725 ± 0.021 | 0.662 ± 0.02 | 0.61 ± 0.033 | 0.564 ± 0.018 | 0.535 ± 0.016 | 0.512 ± 0.015
10 µM, coculture fibroblast: Hs27A | 0.956 ± 0.025 | 0.92 ± 0.024 | 0.867 ± 0.03 | 0.787 ± 0.031 | 0.7 ± 0.058 | 0.686 ± 0.054 | 0.676 ± 0.063 | 0.664 ± 0.042 | 0.629 ± 0.029
10 µM, coculture fibroblast: Hs343T | 0.871 ± 0.069 | 0.9691 ± 0.0014 | 0.919 ± 0.025 | 0.875 ± 0.011 | 0.739 ± 0.0011 | 0.692 ± 0.026 | 0.623 ± 0.0074 | 0.575 ± 0.013 | 0.536 ± 0.0058
10 µM, coculture fibroblast: WS1 | 0.825 ± 0.026 | 0.753 ± 0.036 | 0.681 ± 0.048 | 0.609 ± 0.015 | 0.56 ± 0.02 | 0.526 ± 0.022 | 0.4763 ± 0.0014 | 0.4393 ± 0.0034 | 0.407 ± 0.017
100 µM, coculture fibroblast: C12385 | 0.721 ± 0.048 | 0.436 ± 0.025 | 0.282 ± 0.023 | 0.173 ± 0.022 | 0.128 ± 0.02 | 0.102 ± 0.019 | 0.0776 ± 0.017 | 0.0624 ± 0.014 | 0.0454 ± 0.013
100 µM, coculture fibroblast: H6013 | 0.752 ± 0.039 | 0.3942 ± 0.0024 | 0.328 ± 0.025 | 0.282 ± 0.016 | 0.24 ± 0.016 | 0.213 ± 0.0096 | 0.18 ± 0.0092 | 0.16 ± 0.011 | 0.123 ± 0.0045
100 µM, coculture fibroblast: H6019 | 0.802 ± 0.015 | 0.443 ± 0.11 | 0.34 ± 0.049 | 0.243 ± 0.035 | 0.208 ± 0.035 | 0.185 ± 0.03 | 0.164 ± 0.03 | 0.148 ± 0.028 | 0.13 ± 0.028
100 µM, coculture fibroblast: H6076 | 0.787 ± 0.077 | 0.511 ± 0.036 | 0.398 ± 0.09 | 0.363 ± 0.092 | 0.311 ± 0.08 | 0.292 ± 0.083 | 0.253 ± 0.075 | 0.219 ± 0.069 | 0.191 ± 0.062
100 µM, coculture fibroblast: H6231 | 0.804 ± 0.00087 | 0.509 ± 0.068 | 0.372 ± 0.061 | 0.34 ± 0.062 | 0.281 ± 0.058 | 0.258 ± 0.052 | 0.22 ± 0.05 | 0.19 ± 0.048 | 0.169 ± 0.046
100 µM, coculture fibroblast: HADF | 0.5804 ± 0.0054 | 0.335 ± 0.062 | 0.267 ± 0.033 | 0.235 ± 0.024 | 0.208 ± 0.011 | 0.189 ± 0.011 | 0.162 ± 0.0051 | 0.15 ± 0.0026 | 0.116 ± 0.0019
100 µM, coculture fibroblast: HCFa | 0.894 ± 0.023 | 0.642 ± 0.05 | 0.501 ± 0.077 | 0.412 ± 0.09 | 0.36 ± 0.11 | 0.338 ± 0.11 | 0.305 ± 0.11 | 0.28 ± 0.1 | 0.235 ± 0.099
100 µM, coculture fibroblast: HCPF | 0.962 ± 0.021 | 0.579 ± 0.1 | 0.351 ± 0.065 | 0.297 ± 0.037 | 0.239 ± 0.028 | 0.214 ± 0.027 | 0.202 ± 0.026 | 0.158 ± 0.023 | 0.131 ± 0.025
100 µM, coculture fibroblast: HHSteC | 0.698 ± 0.025 | 0.322 ± 0.056 | 0.267 ± 0.042 | 0.223 ± 0.037 | 0.187 ± 0.032 | 0.159 ± 0.027 | 0.136 ± 0.025 | 0.117 ± 0.028 | 0.0833 ± 0.024
100 µM, coculture fibroblast: HMF | 0.872 ± 0.044 | 0.526 ± 0.014 | 0.38 ± 0.059 | 0.356 ± 0.057 | 0.293 ± 0.06 | 0.264 ± 0.053 | 0.229 ± 0.046 | 0.2 ± 0.052 | 0.171 ± 0.042
100 µM, coculture fibroblast: HPFa | 0.878 ± 0.068 | 0.657 ± 0.12 | 0.47 ± 0.094 | 0.378 ± 0.075 | 0.342 ± 0.078 | 0.309 ± 0.075 | 0.264 ± 0.072 | 0.243 ± 0.07 | 0.199 ± 0.06
100 µM, coculture fibroblast: HUF | 0.796 ± 0.071 | 0.682 ± 0.051 | 0.594 ± 0.0066 | 0.438 ± 0.011 | 0.36 ± 0.0061 | 0.303 ± 0.0035 | 0.265 ± 0.0058 | 0.24 ± 0.0028 | 0.217 ± 0.0025
100 µM, coculture fibroblast: Hs27A | 0.894 ± 0.021 | 0.627 ± 0.051 | 0.443 ± 0.05 | 0.361 ± 0.055 | 0.322 ± 0.053 | 0.305 ± 0.051 | 0.267 ± 0.05 | 0.251 ± 0.049 | 0.202 ± 0.04
100 µM, coculture fibroblast: Hs343T | 0.832 ± 0.014 | 0.459 ± 0.02 | 0.406 ± 0.03 | 0.385 ± 0.024 | 0.322 ± 0.024 | 0.289 ± 0.013 | 0.249 ± 0.015 | 0.212 ± 0.014 | 0.191 ± 0.0076
100 µM, coculture fibroblast: WS1 | 0.656 ± 0.051 | 0.306 ± 0.025 | 0.253 ± 0.035 | 0.172 ± 0.029 | 0.128 ± 0.021 | 0.111 ± 0.022 | 0.084 ± 0.019 | 0.0697 ± 0.019 | 0.0541 ± 0.016
